Data taken from paper PMC4654935.
These are yes or no findings as the source states them, for the method shown. For part of these data: Binding seen in cells or lysates may run through a third protein. Some entries that bind do so weakly or less than the wild type. For part of these data: Tags and fused reporters may be left off the sequences shown.

Chains of the proteins cited; added tags and fusions are not shown. Lines headed by an entry give the natural chain unless they say otherwise; changes in a name come on top. Residues count along the entry.
UniProt Q01968, residues 539-901: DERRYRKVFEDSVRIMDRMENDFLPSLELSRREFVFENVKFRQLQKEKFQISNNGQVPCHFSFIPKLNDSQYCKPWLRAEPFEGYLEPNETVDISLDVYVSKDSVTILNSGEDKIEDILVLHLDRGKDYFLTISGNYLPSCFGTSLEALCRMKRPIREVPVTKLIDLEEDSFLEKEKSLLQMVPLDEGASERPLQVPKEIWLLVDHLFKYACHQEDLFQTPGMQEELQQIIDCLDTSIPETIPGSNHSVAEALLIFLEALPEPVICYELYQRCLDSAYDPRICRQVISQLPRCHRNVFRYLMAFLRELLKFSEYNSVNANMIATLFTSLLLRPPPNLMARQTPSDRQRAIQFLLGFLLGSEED
UniProt P61006: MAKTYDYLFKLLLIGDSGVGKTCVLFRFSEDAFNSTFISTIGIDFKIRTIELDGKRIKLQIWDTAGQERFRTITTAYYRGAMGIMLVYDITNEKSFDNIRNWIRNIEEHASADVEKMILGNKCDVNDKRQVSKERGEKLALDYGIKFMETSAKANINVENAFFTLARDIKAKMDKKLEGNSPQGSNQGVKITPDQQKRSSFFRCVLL

T1: GFP-Rabin8 (human) (UniProt Q96QF0)
T1 sequence: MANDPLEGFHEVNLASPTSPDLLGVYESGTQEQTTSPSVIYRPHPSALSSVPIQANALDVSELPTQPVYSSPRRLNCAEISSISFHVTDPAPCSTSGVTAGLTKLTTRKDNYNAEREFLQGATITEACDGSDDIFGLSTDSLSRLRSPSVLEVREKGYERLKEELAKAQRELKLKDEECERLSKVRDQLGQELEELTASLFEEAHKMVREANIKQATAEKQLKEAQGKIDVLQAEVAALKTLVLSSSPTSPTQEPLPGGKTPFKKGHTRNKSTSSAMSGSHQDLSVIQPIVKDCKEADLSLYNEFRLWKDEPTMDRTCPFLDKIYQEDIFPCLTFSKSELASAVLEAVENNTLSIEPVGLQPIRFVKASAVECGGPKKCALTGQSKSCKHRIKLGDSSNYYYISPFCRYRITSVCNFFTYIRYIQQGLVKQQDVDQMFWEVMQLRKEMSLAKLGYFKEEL

B1: endogenous Rabin8 (protein, UniProt Q96QF0-2 1-460)
chain: T1 sequence

Tests used:
GFP-Rabin8 (human) = target: T1, GFP-Rabin8 (human); assay: co-IP; Rab8A KO HeLa cells co-transfected with GFP-Rabin8 and HA-Rab8A WT, S111E or S111A; whole-cell lysate (1 mg) immunoprecipitated with GFP binder sepharose resin, immunoblotted with anti-HA and anti-GFP
OCRL1(539-901) = OCRL1(539-901) (UniProt Q01968); assay: SEC; analytical gel filtration, Superdex 200 (10/30); OCRL1(539-901) 15 uM and Rab protein 19.5 uM (GppNHp-loaded) incubated 1 h in 70 ul; 20 mM HEPES pH 7.5, 50 mM NaCl, 2 mM DTE, 1 mM MgCl2, 1 uM GppNHp; detection at 254 nm; both purified
[1] = target: wild-type HA-Rab8A (human) (UniProt P61006); assay: co-IP; HA-Rab8A WT, S111E or S111A transfected in Rab8A KO HeLa cells; whole-cell lysate (1 mg) immunoprecipitated with anti-HA agarose, immunoblotted with anti-Rabin8 (endogenous) and anti-HA
HA-Rab8A S111A (human) = HA-Rab8A S111A (human) (UniProt P61006); assay: as above

Row | Molecule | binding (GFP-Rabin8 (human)) | binding (OCRL1(539-901)) | other results
1 | wild-type HA-Rab8A (from UniProt P61006 1-207) | binds |  | 
2 | Rab8A wild-type (recombinant) (from UniProt P61006 1-207) |  | binds | 
3 | Rab8A S111E (recombinant) (from UniProt P61006 1-207) |  | binds | 
4 | HA-Rab8A S111A (from UniProt P61006 1-207) | binds |  | 
5 | B1 |  |  | binding [1]: binds; binding (HA-Rab8A S111A (human)): binds
